Read-outs that look alike come from different tables or passages of the source. Results are given in words; binding and its absence hold for the method and conditions named. Some entries that bind do so weakly or less than the wild type.
B1: 27-10-E8 (VHH)
VHH: EVQLVESGGGLVQAGGSLRLSCAASGRTFSTYTMAWFRQAPGKEREFVQGISRSDGGTYDADSVKGRFTISRDNAKNTVYLQMNSLKPEDTAVYFCAAASVKLVYVNPNRYSYWGQGTQVTVSS
notes: anti-EGFR Nanobody; tested as periplasmic extract or IMAC purified soluble Nanobody, tag not described; also called EGR 27-10-E8
B2: PMP1C7 (VHH)
VHH: QVKLEESGGGLVQAGGSLRLSCVASGRTFSRTAMAWFRQAPGKEREFVATITWNSGTTRYADSVKGRFFISKDSAKNTIYLEMNSLEPEDTAVYYCAATAAAVITPTRGYYNYWGQGTQVTVSS
notes: anti-IGF-IR Nanobody; tag not described; also called IGR PMP1C7
B3: PMP4B11 (VHH)
VHH: EVQLVESGGGLVQPGGSLRLSCAASGSIFTFNAMGWYRQAPGKQRELVAVIISGGSTHYVDSVKGRFTISRDNAKKMVYLQMNSLKPEDTAVYYCNVKKFGDYWGQGTQVTVSS
B4: PMP3G7 (VHH)
VHH: DVQLVESGGGLVQAGGSLRLSCAASESISTINVMAWYRQAPGKQRELVAEITRSGRTNYVDSVKGRFTISRDNAKNTMYLQMNSLNLEDTAVYYCRTIDGSWREYWGQGTQVTVSS
B5: PMP2C7 (VHH)
VHH: QVKLEESGGGLVQPGGSLRLSCVASGRTFSNYAMGWFRQAPGQEREFVAAINWNSRSTYYADSVKGRFTISRLNARNTVYLQMNRLKPEDTAVYDCAASHDSDYGGTNANLYDYWGQGTQVTVSS

Protein sequences, listed by entry. Tags and fused reporters are not part of them. Residues count along the entry.
UniProt P08069, residues 31-932: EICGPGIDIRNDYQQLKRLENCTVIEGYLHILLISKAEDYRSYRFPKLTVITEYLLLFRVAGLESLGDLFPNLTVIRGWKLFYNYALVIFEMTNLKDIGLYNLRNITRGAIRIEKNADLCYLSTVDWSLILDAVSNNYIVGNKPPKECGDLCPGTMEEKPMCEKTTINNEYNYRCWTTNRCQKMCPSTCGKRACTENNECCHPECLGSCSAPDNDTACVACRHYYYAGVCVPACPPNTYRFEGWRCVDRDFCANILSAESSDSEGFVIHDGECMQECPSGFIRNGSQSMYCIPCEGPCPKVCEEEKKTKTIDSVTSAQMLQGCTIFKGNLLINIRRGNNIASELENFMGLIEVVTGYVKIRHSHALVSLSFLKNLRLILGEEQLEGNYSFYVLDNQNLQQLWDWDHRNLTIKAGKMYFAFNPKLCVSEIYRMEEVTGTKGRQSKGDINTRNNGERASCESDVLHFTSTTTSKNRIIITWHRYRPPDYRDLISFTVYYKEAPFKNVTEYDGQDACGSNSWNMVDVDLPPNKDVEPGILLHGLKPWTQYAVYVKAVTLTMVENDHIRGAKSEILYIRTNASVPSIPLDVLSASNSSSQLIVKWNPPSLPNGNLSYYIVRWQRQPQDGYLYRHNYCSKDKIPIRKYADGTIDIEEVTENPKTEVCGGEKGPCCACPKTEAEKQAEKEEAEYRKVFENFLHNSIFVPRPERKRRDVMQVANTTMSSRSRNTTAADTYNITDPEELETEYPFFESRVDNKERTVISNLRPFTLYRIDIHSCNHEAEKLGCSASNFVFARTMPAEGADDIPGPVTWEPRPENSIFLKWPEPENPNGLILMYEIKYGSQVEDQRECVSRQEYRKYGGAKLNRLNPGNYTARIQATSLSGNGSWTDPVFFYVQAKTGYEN

Experiments:
[1] = molecular target: T1, EGFR on A431 derived membrane vesicles (human, UniProt P00533 25-1210)
T1 construct: whole, on cells; presented in membrane vesicles coated on ELISA plates, not on intact cells; also called EGFR harboring A431 vesicles; EGFR expressing A431 vesicles

[2] = molecular target: T1, EGFR on A431 derived membrane vesicles; remark: listed apart in the source
[3] = molecular target: T2, cell surface expressed EGFR (human, UniProt P00533 25-1210)
T2 construct: whole, on cells; also called EGFR on A431 tumor cells; EGFR on HER14 cells

[4] = molecular target: T3, Recombinant human IGF-IR (human, UniProt P08069 31-932)
T3 construct: bought; also called rhIGFIR; rhIGF-IR

[5] = molecular target: T3, Recombinant human IGF-IR; assay: ligand inhibition assay: competition ELISA, rhIGFIR coated, Nanobody titrated against biotinylated IGF-I (IGF-I biot @50ng/ml)

| Binder | binding [4] | also measured |
| --- | --- | --- |
| B1 |  | binding [1]: binds; binding [2]: binds; binding [3]: binds |
| B2 | binds | binding [5]: binds |
| B3 | binds |  |
| B4 | binds |  |
| B5 | binds |  |

— US20090252681A1 (Ablynx, published 2009)
